This is an account of results in patent US10688131B2, “Peptides and scaffolds for use in immunotherapy against head and neck squamous cell carcinoma and other cancers” (Immatics Biotechnologies GmbH, priority 2016, dated 2020).

Data set [1] deals with head and neck squamous cell carcinoma samples. Description: Identification and label-free LC-MS quantitation of HLA-presented peptides (presentation profile) on HNSCC versus normal tissues. Also on record: species or system human; key: very highly over-presented on tumors compared to a panel of normal tissues (+++); highly over-presented on tumors compared to a panel of normal tissues (++); over-presented on tumors compared to a panel of normal tissues (+). As to conditions: presentation score: over-presentation on head and neck squamous cell carcinoma tumors compared to a panel of normal tissues.

A further data set concerns additional tumor types. Description: LC-MS presentation of peptides on additional tumor types versus normal tissues. As to conditions: for Other relevant organs/diseases: additional tumor types where over-presented on more than 5% of measured tumor samples, or presented on more than 5% with ratio of geometric means tumor vs normal larger than 3 (Table 4A); for Additional Entities: additional tumor types, same criteria, other normal tissue panel (Table 4B). Also on record: species or system human.

Turning to “1 (GLAGGFGGPGFPV; listed as Homo sapiens) [compound 1]”, the “Peptide Presentation” value in data set [1] is “+++”. In addition, the Other relevant organs/diseases result with additional tumor types is recorded as “Gallbladder Cancer, Bile Duct Cancer”.

Regarding “2 (PVCPPGGIQEV; listed as Homo sapiens) [compound 2]”, in data set [1], the “Peptide Presentation” value is recorded as “+++”. In addition, in the data set on additional tumor types, the Other relevant organs/diseases result is given as “NSCLC, SCLC” and the “Additional Entities” value is “Esophageal Cancer”.

On to “3 (SLYGLGGSKRISI; listed as Homo sapiens) [compound 3]”, for which the “Peptide Presentation” value in data set [1] is listed as “+++”. Besides, in the data set on additional tumor types, the Other relevant organs/diseases result is “Esophageal Cancer, Urinary bladder cancer”.

As for “4 (ILDINDNPPV; listed as Homo sapiens) [compound 4]”, the “Peptide Presentation” value in data set [1] is “+++”. Moreover, the Other relevant organs/diseases entry in the data set with additional tumor types is given as “BRCA, Esophageal Cancer, Urinary bladder cancer”.

For “5 (VCPPGGIQEV; listed as Homo sapiens) [compound 5]”, the “Peptide Presentation” value in data set [1] is “+++”.

For “6 (ALYDAELSQM; listed as Homo sapiens) [compound 6]”, in data set [1], the “Peptide Presentation” value is given as “+++”. Also, the “Additional Entities” value with additional tumor types is “Esophageal Cancer”.

“7 (ALEEANADLEV; listed as Homo sapiens) [compound 7]”: the “Peptide Presentation” value in data set [1] is “+++”. Besides, the Other relevant organs/diseases entry with additional tumor types was “Esophageal Cancer, Urinary bladder cancer”.

As for “8 (AQLNIGNVLPV; listed as Homo sapiens) [compound 8]”, the “Peptide Presentation” value in data set [1] is “+++”. Further, in the data set with additional tumor types, the Other relevant organs/diseases entry is “Melanoma, Esophageal Cancer” and the “Additional Entities” value is on record as “Urinary bladder cancer”.

Regarding “9 (STASAITPSV; listed as Homo sapiens) [compound 9]”, in data set [1], the “Peptide Presentation” value is “+++”. Further, in the data set with additional tumor types, the Other relevant organs/diseases result is recorded as “Melanoma” and the “Additional Entities” value is given as “Esophageal Cancer”.

As to “10 (TLWPATPPKA; listed as Homo sapiens) [compound 10]”, the “Peptide Presentation” value in data set [1] was “+++”. In addition, the Other relevant organs/diseases entry with additional tumor types was “Gallbladder Cancer, Bile Duct Cancer”.

“11 (VLFSSPPVI; listed as Homo sapiens) [compound 11]”: the “Peptide Presentation” value in data set [1] was “+++”. Besides, the Other relevant organs/diseases result with additional tumor types is “Melanoma”.

As to “12 (TLTDEINFL; listed as Homo sapiens) [compound 12]”, the “Peptide Presentation” value in data set [1] is “+++”.

For “13 (SLVSYLDKV; listed as Homo sapiens) [compound 13]”, in data set [1], the “Peptide Presentation” value is reported as “+++”.

For “14 (RIMEGIPTV; listed as Homo sapiens) [compound 14]”, the “Peptide Presentation” value in data set [1] is on record as “+++”.

On to “15 (SMLNNIINL; listed as Homo sapiens) [compound 15]”, for which the “Peptide Presentation” value in data set [1] was “+”. Besides, the Other relevant organs/diseases result in the data set with additional tumor types was “Urinary bladder cancer”.

As to “16 (ALKDSVQRA; listed as Homo sapiens) [compound 16]”, in data set [1], the “Peptide Presentation” value was “+++”. For the same substance, in the data set with additional tumor types, the Other relevant organs/diseases result is recorded as “AML, BRCA, Melanoma, Esophageal Cancer, Urinary bladder cancer, Uterine Cancer” and the “Additional Entities” value is listed as “HCC”.

On to “17 (SIWPALTQV; listed as Homo sapiens) [compound 17]”, for which the “Peptide Presentation” value in data set [1] is “+++”. Further, the Other relevant organs/diseases entry with additional tumor types is listed as “SCLC, AML, BRCA, Melanoma, Uterine Cancer, Gallbladder Cancer, Bile Duct Cancer”.

Take “18 (YLYPDLSRL; listed as Homo sapiens) [compound 18]”: in the data set with additional tumor types, the Other relevant organs/diseases entry is on record as “Brain Cancer”.

For “19 (ALAKLLPLL; listed as Homo sapiens) [compound 19]”, the “Peptide Presentation” value in data set [1] was “+++”. The Other relevant organs/diseases entry in the data set on additional tumor types is “Esophageal Cancer, Urinary bladder cancer, Uterine Cancer”.

In the case of “20 (YLINEIDRIRA; listed as Homo sapiens) [compound 20]”, in data set [1], the “Peptide Presentation” value was “+++”. For the same substance, the Other relevant organs/diseases result in the data set with additional tumor types is listed as “NSCLC, Urinary bladder cancer”.

On to “21 (FLHEPFSSV; listed as Homo sapiens) [compound 21]”, for which the “Peptide Presentation” value in data set [1] is reported as “+++”. Also, the Other relevant organs/diseases result in the data set on additional tumor types is “Urinary bladder cancer”.

Regarding “22 (KLPEPCPSTV; listed as Homo sapiens) [compound 22]”, the “Peptide Presentation” value in data set [1] is listed as “+++”.

With “25 (SLCPPGGIQEV; listed as Homo sapiens) [compound 25]”, in data set [1], the “Peptide Presentation” value is listed as “+++”.

In the case of “26 (TLVDENQSWYL; listed as Homo sapiens) [compound 26]”, the “Peptide Presentation” value in data set [1] is “+++”.

“28 (AVDPVSGSLYV; listed as Homo sapiens) [compound 28]”: the “Peptide Presentation” value in data set [1] is reported as “+++”.

Regarding “30 (TLASLGYAVV; listed as Homo sapiens) [compound 30]”, the “Peptide Presentation” value in data set [1] is “+++”.

Regarding “33 (AIYEGVGWNV; listed as Homo sapiens) [compound 33]”, the “Peptide Presentation” value in data set [1] is reported as “+++”.

Regarding “34 (ALDTFSVQV; listed as Homo sapiens) [compound 34]”, the “Peptide Presentation” value in data set [1] is on record as “+++”.

Consider “35 (ALVGDVILTV; listed as Homo sapiens) [compound 35]”, for which the “Peptide Presentation” value in data set [1] is on record as “+++”.

Take “36 (GLWSSIFSL; listed as Homo sapiens) [compound 36]”: the “Peptide Presentation” value in data set [1] is given as “+++”.

As to “38 (KLLPGVQYV; listed as Homo sapiens) [compound 38]”, the “Peptide Presentation” value in data set [1] is “+++”.

In the case of “40 (LLTPLNLQI; listed as Homo sapiens) [compound 40]”, the “Peptide Presentation” value in data set [1] was “+++”.

“44 (GLGDDSFPI; listed as Homo sapiens) [compound 44]”: the “Peptide Presentation” value in data set [1] is “+++”.

For “55 (VLNVGVAEV; listed as Homo sapiens) [compound 55]”, in data set [1], the “Peptide Presentation” value is reported as “+++”.

For the substance “57 (AILGFALSEA; listed as Homo sapiens) [compound 57]”, in the data set with additional tumor types, the Other relevant organs/diseases entry is recorded as “AML, BRCA, Melanoma, Uterine Cancer, Gallbladder Cancer, Bile Duct Cancer” and the “Additional Entities” value is “HCC”.

With “64 (KILESLFVSL; listed as Homo sapiens) [compound 64]”, the Other relevant organs/diseases result with additional tumor types is given as “NSCLC, Urinary bladder cancer, Gallbladder Cancer, Bile Duct Cancer”.

As to “65 (ALWGFFPVLL; listed as Homo sapiens) [compound 65]”, in the data set on additional tumor types, the Other relevant organs/diseases result is “CLL, Melanoma” and the “Additional Entities” value was “HCC”.

For the substance “66 (TLLSEIAEL; listed as Homo sapiens) [compound 66]”, in the data set on additional tumor types, the Other relevant organs/diseases entry is recorded as “CLL, NHL, AML, Melanoma, OC, Uterine Cancer” and the “Additional Entities” value is on record as “HCC”.

Turning to “76 (ILFDEVLTFA; listed as Homo sapiens) [compound 76]”, the Other relevant organs/diseases entry with additional tumor types was “CLL, NHL, AML, BRCA, Uterine Cancer, Gallbladder Cancer, Bile Duct Cancer”.

As to “77 (SLRAFLMPI; listed as Homo sapiens) [compound 77]”, in the data set on additional tumor types, the Other relevant organs/diseases entry is on record as “AML”.

Take “84 (ALMAGCIQEA; listed as Homo sapiens) [compound 84]”: the “Peptide Presentation” value in data set [1] is “+++”.

As to “87 (ALPEPSPAA; listed as Homo sapiens) [compound 87]”, the Other relevant organs/diseases result with additional tumor types is on record as “RCC, NHL, Melanoma, Gallbladder Cancer, Bile Duct Cancer”.

In the case of “89 (VLDEGLTSV; listed as Homo sapiens) [compound 89]”, the Other relevant organs/diseases entry in the data set with additional tumor types is reported as “SCLC, RCC, CLL, NHL, BRCA, Melanoma, Urinary bladder cancer, Uterine Cancer”.
